Laboratory results: patent US20200031919A1 (SUZHOU KANOVA BIOPHARMACEUTICAL, published 2020)
No constants are given. Whether binding was seen depends on the method and setting. Some binding calls cover weakened binding; strength is not graded here.

Key:
cynomolgus IL-17F = biological target: T1, cynomolgus IL-17F (cynomolgus, UniProt G7P4V0 31-163); assay: ELISA, cynomolgus IL-17F coated
T1 construct: also called cynomolgus 17F
T1 sequence: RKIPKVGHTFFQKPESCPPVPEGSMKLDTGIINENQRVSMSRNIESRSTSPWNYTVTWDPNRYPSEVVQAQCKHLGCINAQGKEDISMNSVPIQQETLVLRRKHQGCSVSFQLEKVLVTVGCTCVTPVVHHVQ

[1] = biological target: cynomolgus IL-17A (cynomolgus); assay: ELISA, cynomolgus IL-17A coated

B1: anti-IL17A/F antibody hIgG VH1-1/VL5 (antibody, V domains shown)
VH: QFQLVQSGAEVKKPGASVKVSCKASGYTFTDYNLNWVRQAPGKGLEWMGVIHPDYGTTSYNQKFKDRVTMTVDTSTSTVYMELSSLRSEDTAVYYCVRYDYGDAMDYWGQGTLVTVSS
VL: DIVMTQSPLSLSVTPGQPASISCRSSQSLVHSNGNTYLHWYLQKPGQPPQLLIYKVSNRFSGVPDRFSGSGSGTDFTLKISRVEAEDVGVYYCSQSTHVPLTFGQGTKLEIKR
notes: also called VH1-1/VL5 mAb; hIgGc VH1-1/VL5
For B1, the binding (cynomolgus IL-17F) was “binds” and the binding [1] was “binds”.
